Source: paper PMC4423596 (Angewandte Chemie (International ed. in English), 2015)

Sequences of proteins named here, by UniProt entry; tags and fusion partners are left off. Residues count along the entry.
UniProt P45481, 586-665: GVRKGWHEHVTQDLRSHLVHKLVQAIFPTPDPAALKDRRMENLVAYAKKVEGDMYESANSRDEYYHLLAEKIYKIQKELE

Molecular target: CBP/p300 KIX domain (Mus musculus, UniProt P45481)
Test: PrOF NMR chemical shift perturbation at fixed ligand concentration
Format: binding
Settings: 3FY-labeled KIX; 833 µM to 5 mM small molecule

## COc1ccc2cc([C@H](C)C(=O)O)ccc2c1 [naproxen]
  chemical shift perturbation (PrOF NMR), in words: under the statistical cutoff
